Assay results reported in US20210199665A1.
Results are given in words; binding and its absence hold for the method and conditions named. Some binding calls cover weakened binding; strength is not graded here.

Amino acid sequences for entries named in this document (tags omitted). Residues count along the entry.
UniProt O43791, residues 31-161: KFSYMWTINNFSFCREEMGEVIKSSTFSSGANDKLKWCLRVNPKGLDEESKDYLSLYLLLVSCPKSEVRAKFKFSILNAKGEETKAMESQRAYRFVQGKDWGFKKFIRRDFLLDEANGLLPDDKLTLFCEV

Target: His-MATH (His-tagged MATH domain of human SPOP) (human) (UniProt O43791)
Experiment: peptide competition in the in vitro Pup modification assay: 1 µM PUP-IT^pep1 (competitor), 0.2 µM His-MATH, 8 µM Pup(E), free peptide 1-512 µM; anti-His immunoblot

LACDEVTSTTSSSTA [Free pep1 peptide] was tested, and the binding was “binds”.
